Values quoted from earlier work as cited in patent publication US8865699B2, “Amino triazoles as PI3K inhibitors” (Cellzome Ltd., priority 2007, dated 2014).
For at least one compound, name, drawing or mass did not settle the structure.

Key:
PI3KCA mutant cells = conditions: human cancer cells

| Structure (SMILES) | PIK3A signaling (PI3KCA mutant cells) | growth of PI3KCA mutant cells (PI3KCA mutant cells) | selectivity between distinct PI3K isoforms (PI3K isoforms) |
| --- | --- | --- | --- |
| O=c1cc(N2CCOCC2)oc2c(-c3ccccc3)cccc12 [LY294002] | abrogated PIK3A signaling | preferentially inhibited growth of PI3KCA mutant cells | not selective enough to discriminate between distinct PI3K isoforms |
| COC[C@H]1OC(=O)c2coc3c2[C@@]1(C)C1=C(C3=O)[C@@H]2CCC(=O)[C@@]2(C)C[C@H]1OC(C)=O [wortmannin] | – | – | not selective enough to discriminate between distinct PI3K isoforms |
